Assay results reported in article PMC3037368.

T1: AtBPC6 (Arabidopsis thaliana BASIC … 6), full-length, yeast two-hybrid fusion (Arabidopsis thaliana) (UniProt Q8L999)
T1 sequence: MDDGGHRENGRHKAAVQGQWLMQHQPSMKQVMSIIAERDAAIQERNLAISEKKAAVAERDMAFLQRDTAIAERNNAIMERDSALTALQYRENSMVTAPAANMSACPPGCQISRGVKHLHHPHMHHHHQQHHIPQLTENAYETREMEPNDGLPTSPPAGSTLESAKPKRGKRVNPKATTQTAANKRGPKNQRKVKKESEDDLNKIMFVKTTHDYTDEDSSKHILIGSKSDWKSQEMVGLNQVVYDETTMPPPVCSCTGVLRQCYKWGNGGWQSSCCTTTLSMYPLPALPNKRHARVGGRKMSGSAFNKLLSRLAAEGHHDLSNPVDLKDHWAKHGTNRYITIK


Columns and labels:
[1] = target: T1, AtBPC6 (Arabidopsis thaliana BASIC … 6), full-length, yeast two-hybrid fusion (Arabidopsis thaliana); assay: two-hybrid; AD (pGADT7-DEST) and BD (pGBKT7-DEST) fusions in yeast PJ69-4A; growth on selective media (CSM-L-,W-,Ade-) and β-galactosidase reporter activity (MUG substrate, n = 9), background from empty AD-clone combinations
[2] = target: BPC6-ΔC fragment of AtBPC6, yeast two-hybrid fusion (Arabidopsis thaliana); assay: as above

binding [1]	binding [2]	Molecule
binds	–	BPC6-ΔC fragment of AtBPC6, yeast two-hybrid fusion (Arabidopsis thaliana) (domain or fragment)
–	binds	AtBPC4 (Arabidopsis thaliana BASIC … 4), yeast two-hybrid fusion (protein, UniProt Q8S8C6 1-296) MENGGQYDNARFKPDYFKGAQSMWNMIPQHQIKEQHNALVMNKKIMSILAERDAAVHERNQAVSAKKEAVAARDEALQQRDKALSERDKALIERDNAYAALQHHENSLNFALSGGKCVDGDDCFGIGEPHKLEVFPLSTIPPEVTNTKVVNKRKKENKQGLSKVKKVGEDLNRRVPAPGKKSRTDWDSQDVGLNLVTFDETTMPVPMCSCTGSTRQCYKWGNGGWQSSCCTTTLSQYPLPQMPNKRHSRMGGRKMSGNVFSRLLSRLSAEGYDLSCPVDLKDYWARHGTNRYITIK

Results are given in words; binding and its absence hold for the method and conditions named. Binding can be weak; no strength is given. Sequences can lack the tags named with a protein.
